# Results published in PubChem BioAssay AID248 (DTP/NCI, 2004).
# The list shows only some results of the screen, not a fair sample: it gathers tests that were run many times, whatever their T/C, doses with no T/C, and many T/C values between a quarter and a half above the control. Other doses and runs of a compound stand elsewhere. T/C: endpoint of the treated group in % of that of the vehicle group. Some doses have a count of surviving animals in place of a T/C: the source holds a T/C of zero for them, seemingly a mark for toxic or unscored doses. Some doses without a T/C left all or most animals alive at the check, yet need not have been tolerated: the source hardly ever lists a survival T/C far under the control, and the zero likely stands for such cases as well. Survivors were counted at the toxicity check, usually on the fifth day, unless a day is given; later deaths do not show. Schedules are NCI's codes, taken here to give the interval after Q, in days (D) or hours (H), and the number of doses after X. Some entries hold several experiments; the results are listed from low to high. Some schedule codes hold Z or #, which are not explained here. For survival time, this PubChem deposit counts one and a half times the control or more as active, and values a quarter to a half above the control carry no call in these data; other NCI protocols may use other cut-offs. Some T/C values carry the count of animals alive at the toxicity check (mostly the fifth day); without a count, all were alive then.
# System: L1210 leukemia ip in BDF1 mice, survival T/C
# Test: NCI In Vivo Anticancer Drug Screen. Data for tumor model L1210 Leukemia (intraperitoneal) in B6D2F1 (BDF1) mice
# Conditions: T/C endpoint: mean survival time, higher T/C = longer survival
smiles,measurement,setting,value
O=NN(CCCl)C(=O)NCCCl,T/C,"dose: 20.0 mg/kg/injection, schedule: Q01DX001 (ip), vehicle: saline, evaluated on day 45",377 % of control
same,T/C,"dose: 20.0 mg/kg/injection, schedule: Q01DX001 (ip), vehicle: saline, evaluated on day 60","295, 498, 721 % of control"
same,survivor count,"dose: 24.0 mg/kg/injection, schedule: Q## X Z (ip), vehicle: saline",2 of 10 and 5 of 10
same,T/C,"dose: 25.0 mg/kg/injection, schedule: Q01DX001 (ip), vehicle: saline, evaluated on day 30","188, 256, 285 % of control"
same,T/C,"dose: 25.0 mg/kg/injection, schedule: Q01DX001 (ip), vehicle: saline, evaluated on day 45",425 % of control
same,T/C,"dose: 25.0 mg/kg/injection, schedule: Q01DX001 (ip), vehicle: saline, run until all animals had died",289 % of control
same,T/C,"dose: 25.0 mg/kg/injection, schedule: Q01DX Z (ip), vehicle: carboxymethylcellulose (CMC)",127 % of control
same,T/C,"dose: 27.0 mg/kg/injection, schedule: Q01DX001 (ip), vehicle: clinical formulation","348, 429, 462, 625 % of control"
same,T/C,"dose: 30.0 mg/kg/injection, schedule: Q01DX001 (ip), vehicle: saline + alcohol, evaluated on day 5",330 and 366 % of control
same,T/C,"dose: 30.0 mg/kg/injection, schedule: Q01DX001 (ip), vehicle: saline + alcohol, evaluated on day 45","257, 442, 450, 460, 503 % of control"
same,T/C,"dose: 30.0 mg/kg/injection, schedule: Q01DX001 (ip), vehicle: saline + alcohol, evaluated on day 60","336, 530, 609, 625, 631, 666 % of control"
same,T/C,"dose: 30.0 mg/kg/injection, schedule: Q01DX001 (ip), vehicle: saline, evaluated on day 5",368 % of control
same,T/C,"dose: 30.0 mg/kg/injection, schedule: Q01DX001 (ip), vehicle: saline, evaluated on day 30",308 and 382 % of control
same,T/C,"dose: 30.0 mg/kg/injection, schedule: Q01DX001 (ip), vehicle: saline, evaluated on day 45",429 % of control
same,T/C,"dose: 30.0 mg/kg/injection, schedule: Q01DX001 (ip), vehicle: saline, evaluated on day 60",368 % of control
same,T/C,"dose: 31.0 mg/kg/injection, schedule: Q04DX002 (ip), vehicle: saline + alcohol","240, 281, 306, 326 % of control"
same,survivor count,"dose: 32.0 mg/kg/injection, schedule: Q01DX009 (ip), vehicle: carboxymethylcellulose (CMC)",9 of 10
same,survivor count,"dose: 32.0 mg/kg/injection, schedule: Q01DX009 (ip), vehicle: other",9 of 10
same,survivor count,"dose: 32.0 mg/kg/injection, schedule: Q01DX009 (ip), vehicle: saline",10 of 10
same,T/C,"dose: 32.0 mg/kg/injection, schedule: Q01DX Z (iv), vehicle: saline",131 % of control
same,survivor count,"dose: 32.0 mg/kg/injection, schedule: Q#A X Z (oral), vehicle: saline",6 of 6
same,T/C,"dose: 39.0 mg/kg/injection, schedule: Q01DX001 (ip), vehicle: saline, evaluated on day 30",286 % of control
same,T/C,"dose: 39.0 mg/kg/injection, schedule: Q01DX001 (ip), vehicle: saline, evaluated on day 45",494 % of control
same,T/C,"dose: 39.0 mg/kg/injection, schedule: Q01DX001 (ip), vehicle: saline, run until all animals had died","284, 306, 379 % of control"
same,T/C,"dose: 40.0 mg/kg/injection, schedule: Q01DX001 (ip), vehicle: clinical formulation","540, 568, 573, 581 % of control"
same,T/C,"dose: 40.0 mg/kg/injection, schedule: Q01DX001 (ip), vehicle: saline + alcohol, evaluated on day 45","252, 294, 355, 408 % of control"
same,T/C,"dose: 40.0 mg/kg/injection, schedule: Q01DX001 (ip), vehicle: saline + alcohol, evaluated on day 60","389, 395, 441, 481, 577, 582, 641 % of control"
same,survivor count,"dose: 40.0 mg/kg/injection, schedule: Q01DX001 (ip), vehicle: saline + alcohol",10 of 10
same,survivor count,"dose: 42.6 mg/kg/injection, schedule: Q04DX003 (ip), vehicle: saline",5 of 10
same,T/C,"dose: 48.0 mg/kg/injection, schedule: Q01DX001 (ip), vehicle: Klucel (hydroxypropylcellulose) (HPC)",128 % of control
same,survivor count,"dose: 48.0 mg/kg/injection, schedule: Q01DX005 (ip), vehicle: saline",9 of 10
same,survivor count,"dose: 48.0 mg/kg/injection, schedule: Q01DX005 (oral), vehicle: saline",9 of 10
same,survivor count,"dose: 48.0 mg/kg/injection, schedule: Q01DX009 (ip), vehicle: saline",10 of 10
same,survivor count,"dose: 48.0 mg/kg/injection, schedule: Q01DX009 (oral), vehicle: saline",10 of 10
same,survivor count,"dose: 48.0 mg/kg/injection, schedule: Q01DX009 (sc), vehicle: saline",10 of 10
same,T/C,"dose: 48.0 mg/kg/injection, schedule: Q03DX Z (oral), vehicle: saline",131 % of control [5 of 6 alive]
same,survivor count,"dose: 50.0 mg/kg/injection, schedule: Q01DX Z (ip), vehicle: carboxymethylcellulose (CMC)",6 of 6
same,T/C,"dose: 59.0 mg/kg/injection, schedule: Q01DX001 (ip), vehicle: other",129 % of control
same,T/C,"dose: 60.0 mg/kg/injection, schedule: Q01DX001 (ip), vehicle: clinical formulation","140, 195, 259, 416 % of control"
same,survivor count,"dose: 64.0 mg/kg/injection, schedule: Q#A X Z (oral), vehicle: saline",2 of 6
same,survivor count,"dose: 65.0 mg/kg/injection, schedule: Q01DX001 (ip), vehicle: saline",10 of 10
same,survivor count,"dose: 75.0 mg/kg/injection, schedule: Q01DX001 (ip), vehicle: propolene glycol",8 of 10
same,survivor count,"dose: 96.0 mg/kg/injection, schedule: Q01DX001 (ip), vehicle: saline",8 of 10 and 10 of 10
same,survivor count,"dose: 96.0 mg/kg/injection, schedule: Q01DX001 (sc), vehicle: saline",5 of 10
same,survivor count,"dose: 96.0 mg/kg/injection, schedule: Q01DX005 (ip), vehicle: saline",0 of 10
same,survivor count,"dose: 96.0 mg/kg/injection, schedule: Q01DX005 (oral), vehicle: saline",2 of 10
same,survivor count,"dose: 96.0 mg/kg/injection, schedule: Q01DX009 (ip), vehicle: saline",0 of 10
same,survivor count,"dose: 96.0 mg/kg/injection, schedule: Q01DX009 (oral), vehicle: saline",4 of 10
